# Measurements taken from paper PMC2714321, “DNA binding kinetics of two response regulators, PlnC and PlnD, from the bacteriocin regulon of Lactobacillus plantarum C11”.
# The exact form of at least one protein or probe is not confirmed. A weaker result is weaker than the reference pair of the same experiment. Protein sequences can lack the tags named with them.
# Legend:
# [1] = molecular target: T1, f-PlnC (Lactobacillus plantarum C11) (UniProt Q48829); test: SPR; settings: 1000 nM protein, signal <20 RU, KD not available; SPR (Biacore 3000, SA chip): 20 mM Tris-HCl pH 8.0, 100 mM NaCl, 5 mM MgCl2, 1 mM EDTA, 0.025% Triton X-100, 25°C; native protein; protein details: N-terminal FLAG; label: biotin on forward strand
# T1 sequence (looked up, limits assumed): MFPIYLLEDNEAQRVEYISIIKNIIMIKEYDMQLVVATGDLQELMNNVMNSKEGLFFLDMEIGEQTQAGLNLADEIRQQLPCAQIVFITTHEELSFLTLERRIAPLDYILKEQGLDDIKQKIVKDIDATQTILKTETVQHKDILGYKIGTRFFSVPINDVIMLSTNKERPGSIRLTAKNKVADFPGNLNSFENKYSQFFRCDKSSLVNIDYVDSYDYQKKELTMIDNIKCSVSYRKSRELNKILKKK
# [2] = molecular target: T2, f-PlnD (Lactobacillus plantarum C11) (UniProt Q48830); test: SPR; settings: 1000 nM protein, KD not available, SPR (Biacore 3000, SA chip): 20 mM Tris-HCl pH 8.0, 100 mM NaCl, 5 mM MgCl2, 1 mM EDTA, 0.025% Triton X-100, 25°C, native protein, protein details: N-terminal FLAG, label: biotin on forward strand
# T2 sequence (looked up, limits assumed): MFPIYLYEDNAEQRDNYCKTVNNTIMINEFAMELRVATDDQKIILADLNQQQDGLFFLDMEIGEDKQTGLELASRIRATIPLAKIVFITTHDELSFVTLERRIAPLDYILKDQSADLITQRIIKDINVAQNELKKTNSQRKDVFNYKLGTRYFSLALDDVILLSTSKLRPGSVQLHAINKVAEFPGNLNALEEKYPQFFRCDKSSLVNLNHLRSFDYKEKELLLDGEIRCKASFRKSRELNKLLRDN
sequence,measurement,setting,value
ACTTTCAAGTTACGTTAAATCGATTAAATAGTACGATAACAAATTTAAAA (double strand) [PplnJ],binding result,[1],binds more weakly
ATTGGTATTTGACGTTAAGAGAACGTTTTTTTACTTTTATAATTTTTTCA (double strand) [PplnE],binding result,"[2]; signal hardly detectable, very poor binding",binds more weakly
CATGGTGATTTTAAAATTTATTTAAAAAATGTACGTTAATAGAAATAATT (double strand) [PplnAΔL],binding result,[2]; binding reduced 84-90% vs PplnA (range for both regulators),binds more weakly
